Earlier results on one compound are cited in patent US10976308B2, “Plant-derived nanofibrillar cellulose hydrogel for cell culture and chemical testing” (UPM-KYMMENE CORPORATION, priority 2014, dated 2021).

The conditions of series [1]: by Khetani et al. 2013.
In another series the test system is 3D liver models. Conditions: by Khetani et al. 2013.

Turning to `O=C(O)c1cn(C2CC2)c2cc(N3CCNCC3)c(F)cc2c1=O` [ciprofloxacin], the highest concentration (Cmax) (commonly the maximum level reached in the sampled fluid or tissue) in series [1] is 11.5 µM. For the same compound, the “Toxicity in 3D liver models” value with 3D liver models is reported as “toxicity is not detected in all 3D models tested”.
